These results are taken from US5998594A, “Self-assembling, chromogenic receptors for the recognition of medically important substrates and their method of use” (University of Pittsburgh of the Commonwealth System of …, priority 1994, dated 1999).

Where “and” joins values, the source holds several entries; their conditions need not be identical. Identical values can stand only once. A value given as a limit tells only on which side of the number the result lay.

Common to all, as to assay type: binding
The nature of data set [1]: UV-vis titration (ΔA550) with N-Cbz-glutamic acid in CHCl3. The following applies: N-Cbz-glutamic acid 2:1 complex. An excerpt: Complexation of Receptor 1 with Dicarboxylic Acids. Receptor 1 is a bis(acylaminopyridine) receptor and as such was expected to form strong bidentate interactions with dicarboxylic acids in chloroform. This was indeed the case, as 1 was found by NMR to bind glutaric acid with an association constant of 3.6×10^4 M^-1. Large changes in proton chemical shifts of 1 indicate that the dicarboxylic acid is hydrogen bonded simultaneously to the two acylaminopyridines moieties. […] The contribution of the phenanthroline to binding is uncertain, but it appears to play only a minor role; no protons on the phenanthroline ring shifted more than 0.014 ppm during the course of the titration. […] The stoichiometry of the complexes was 2:1 as determined by the concentration of dicarboxylic acid at which saturation of the receptor was found and independently determined by a Job's plot. A Job's plot is used to measure stoichiometry based on continuous variations of constant concentrations. […] The binding data was analyzed by assuming that two independent and equal bidentate binding sites are interacting with the substrate. […]
In the binding mode proposed in FIG. 5, the structure of the 2:1 complex of glutaric acid with Cu(1)2^+ BF4^- is chiral, similar to a double helix. […] This complicates the analysis of binding because six possibly different binding constants need to be evaluated. […]

The nature of data set [2]: UV-vis titration (ΔA550) with 1,3-phenylenediacetic acid in CHCl3. The following applies: 1,3-phenylenediacetic acid 2:1 complex. The source says: Complexation of Receptor 1 with Dicarboxylic Acids. Receptor 1 is a bis(acylaminopyridine) receptor and as such was expected to form strong bidentate interactions with dicarboxylic acids in chloroform. This was indeed the case, as 1 was found by NMR to bind glutaric acid with an association constant of 3.6×10^4 M^-1. Large changes in proton chemical shifts of 1 indicate that the dicarboxylic acid is hydrogen bonded simultaneously to the two acylaminopyridines moieties. […] The contribution of the phenanthroline to binding is uncertain, but it appears to play only a minor role; no protons on the phenanthroline ring shifted more than 0.014 ppm during the course of the titration. […] The stoichiometry of the complexes was 2:1 as determined by the concentration of dicarboxylic acid at which saturation of the receptor was found and independently determined by a Job's plot. A Job's plot is used to measure stoichiometry based on continuous variations of constant concentrations. Binding was most conveniently followed by UV-vis spectroscopy (ΔA550) and was checked against NMR results for pimelic acid and glutaric acid. The binding data was analyzed by assuming that two independent and equal bidentate binding sites are interacting with the substrate. In this way a single association constant is obtained that represents the strength of binding of one of the receptor binding sites with one substrate. […]

A short description of data set [3]: UV-vis titration (ΔA550) with glutaric acid in CHCl3. The following applies: glutaric acid 2:1 complex. Here is the method: FIG. 3 discloses the change in the visible absorption spectrum of Cu(1)2^+ BF4^- upon addition of glutaric acid in CHCl3 [Cu(1)2^+ BF4^- ]=0.106 mM, [glutaric acid]=0-0.5 mM.
FIG. 4 discloses the change in the visible absorption spectrum of [Cu(L)2^+ BF4^- ] upon addition of glutaric acid in CHCl3. [Cu(L)2^+ BF4^- ]=0-0.125 mM [glutaric acid]=0-0.40 mM.
Complexation of Receptor 1 with Dicarboxylic Acids. Receptor 1 is a bis(acylaminopyridine) receptor and as such was expected to form strong bidentate interactions with dicarboxylic acids in chloroform. This was indeed the case, as 1 was found by NMR to bind glutaric acid with an association constant of 3.6×10^4 M^-1. […] The stoichiometry of the complexes was 2:1 as determined by the concentration of dicarboxylic acid at which saturation of the receptor was found and independently determined by a Job's plot. […] The binding data was analyzed by assuming that two independent and equal bidentate binding sites are interacting with the substrate. […]
The origin of the chromogenic effect is definitely a direct result of the bidentate binding of dicarboxylic acids to the receptors. Addition of large excesses of monocarboxylic acids (acetic or trifluoroacetic) to a CHCl3 solution of either Cu(I)-based receptor leads to only minor changes in the absorbance spectrum. […]

The nature of data set [4]: NMR titration with glutaric acid. An excerpt:
Complexation of Receptor 1 with Dicarboxylic Acids. Receptor 1 is a bis(acylaminopyridine) receptor and as such was expected to form strong bidentate interactions with dicarboxylic acids in chloroform. This was indeed the case, as 1 was found by NMR to bind glutaric acid with an association constant of 3.6×10^4 M^-1. Large changes in proton chemical shifts of 1 indicate that the dicarboxylic acid is hydrogen bonded simultaneously to the two acylaminopyridines moieties. […] The contribution of the phenanthroline to binding is uncertain, but it appears to play only a minor role; no protons on the phenanthroline ring shifted more than 0.014 ppm during the course of the titration. […] The stoichiometry of the complexes was 2:1 as determined by the concentration of dicarboxylic acid at which saturation of the receptor was found and independently determined by a Job's plot. A Job's plot is used to measure stoichiometry based on continuous variations of constant concentrations. Binding was most conveniently followed by UV-vis spectroscopy (ΔA550) and was checked against NMR results for pimelic acid and glutaric acid. The binding data was analyzed by assuming that two independent and equal bidentate binding sites are interacting with the substrate. In this way a single association constant is obtained that represents the strength of binding of one of the receptor binding sites with one substrate. […] An exception was N-Cbz-glutamic acid, which is understandable because there are several diastereotopic complexes present (vide infra), each with a different Ka.

Regarding `Cc1cccc(NC(=O)c2ccc(-c3ccc4ccc5ccc(-c6ccc(C(=O)Nc7cccc(C)n7)cc6)nc5c4n3)cc2)n1.Cc1cccc(NC(=O)c2ccc(-c3ccc4ccc5ccc(-c6ccc(C(=O)Nc7cccc(C)n7)cc6)nc5c4n3)cc2)n1.F[B-](F)(F)F.[Cu+]` [Cu(1)2^+ BF4^-], the “max (nm) 2:1 complex” value is 420 nm and 526 nm in data set [1]; 422 nm and 534 nm in data set [2]; 420 nm and 518 nm in data set [3].
Consider `Cc1cccc(NC(=O)c2ccc(-c3ccc4ccc5ccc(-c6ccc(C(=O)Nc7cccc(C)n7)cc6)nc5c4n3)cc2)n1` [Receptor 1], for which, in data set [4], the “proton shift on binding, H3, H3' of the phenyl ring (Δδ)” value is given as ~ 0.14 ppm; the “proton shift on binding, H3 of the aminopyridine ring (Δδ)” value is on record as ~ 0.13 ppm; the “proton shift on binding, amide protons (Δδ)” value is ~ 2.4 ppm; the “proton shift on binding, phenanthroline ring protons” value is at most 0.014 ppm.
